In general, IC50 refers to the midpoint of a concentration-inhibition curve.

This is an account of results in patent US9173938B2, “Combination of a purine-based CDK inhibitor with a tyrosine kinase inhibitor and use thereof in the treatment of proliferative disorders” (Cyclacel Limited, priority 2007, dated 2015).

Structures are written as SMILES.

This test concerns H358 cells. Description: Cell growth / drug combination analysis (alamar blue, Calcusyn). It is filed as cell-based. The following applies: Homo sapiens, NCI-H358.

Take `CC[C@H](CO)Nc1nc(NCc2ccccc2)c2ncn(C(C)C)c2n1` [seliciclib, 2-(1-R-hydroxymethylpropylamino)-6-benzylamino-9-isopropylpurine]: the IC50 was 8.5 µM.
